According to PubChem BioAssay AID2685 (National Center for Advancing Translational Sciences (NCATS), 2010):
Some of the results follow. These are further read-outs of the screen, such as a control signal, another cell line or another target. No call is given for them. The list favours compounds with an active or inconclusive main result. The note in brackets gives the kind of curve behind each potency; many fits are weak.

Experiment: qHTS Assay for Lipid Storage Modulators in Drosophila S3 Cells;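 on cell number change: cells counted by Cell Tracker Red CMTPX staining in the red channel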
Details: BODIPY lipid droplet fluorescence, 18-24 h; for cell number change: measured here: cell count max response, cells fed with added oleic acid
Method in brief: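 Drosophila S3 cells got compounds at several concentrations plus oleic acid (400 uM solution). Laser-scanning cytometry with 488 nm excitation read lipid droplets at 500-530 nm and cells at 575-640 nm. Percent activity was relative to 20 uM Triacsin C.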

[1] = measured here: lipid fluorescence (Fed channel) AC50, cells fed with added oleic acid
[2] = measured here: cell number channel AC50, cells fed with added oleic acid

Row | Compound | cell number change | AC50 [1] | AC50 [2]
1 | CC(=O)C1=C(O)C(=O)N(Cc2ccco2)C1c1ccccc1 (centres undefined) | 8.76% | 6.51 µM [rising, partial curve, poor fit] | –
2 | COc1ccc2c(c1)cc1c(=O)n(CC(=O)NC(C)CCc3ccccc3)nc(C)n12 (centres undefined) | 63.7% | – | 11.6 µM [rising, partial curve]
3 | COC(=O)c1ccccc1NC(=O)c1cc(-c2ccc(O)cc2)on1 | 2.29% | – | –
4 | CCC(=O)N1CCN(c2ccc(NC(=S)NC(=O)c3cccc([N+](=O)[O-])c3)cc2)CC1 | -45.5% | 14.6 µM [falling, partial curve] | 16.4 µM [falling, partial curve, poor fit]
5 | COc1ccccc1CNS(=O)(=O)N(C)C | -25.6% | 20.6 µM [falling, single point] | –
6 | Cn1c(-c2ccccc2F)cc2onc(-c3ccccc3)c2c1=O | 37.3% | 18.4 µM [rising, partial curve] | 29.1 µM [rising, single point]
7 | c1ccc(CNc2nc(-c3ccccn3)nc3ccccc23)cc1 | -61.1% | 29.1 µM [falling, single point] | 29.1 µM [falling, single point]
8 | CCOC(=O)CNC(=O)Cn1cnc2c(nnn2-c2ccc(OC)cc2)c1=O | 41.4% | – | 6.51 µM [rising, full curve, poor fit]
9 | O=C(NC1CCCC1)c1n[nH]c2ccccc12 | 25.2% | – | 0.13 µM [rising, full curve, poor fit]
10 | O=C(CCl)N(C1CCCC1)C1CCS(=O)(=O)C1 (centres undefined) | 23.1% | 29.1 µM [falling, partial curve, poor fit] | –
11 | Cn1c(N)c(C(=O)CSc2nn(-c3ccccc3)c(=S)s2)c(=O)n(C)c1=O | 81.5% | – | 1.46 µM [rising, full curve]
12 | Cc1ccc(-n2ncc3c(Nc4cccc(C(=O)O)c4)ncnc32)cc1 | -27.4% | – | 0.651 µM [falling, full curve]
13 | CCCOc1ccc(C(=O)CCC(=O)OCC(=O)Nc2cc(C)on2)cc1 | 1.29% | 23.1 µM [falling, partial curve] | –
14 | O=C(CC(Cc1ccccc1)c1ccco1)NCc1ccco1 (centres undefined) | 25.9% | 9.2 µM [rising, partial curve] | –
15 | CCOC(=O)Cn1c(=O)oc2cc(S(=O)(=O)N(C)c3cccc(C)c3)ccc21 | 13.7% | – | –
16 | COc1ccc(NC(=O)CCc2nc3ccccc3s2)c(OC)c1 | 9.18% | – | 0.411 µM [falling, single point]
17 | CSc1ccccc1NC(=O)Cn1c([N+](=O)[O-])cnc1C | 31.2% | – | 29.1 µM [rising, single point]
18 | O=C(NCC(c1cccs1)N1CCOCC1)C1CCN(S(=O)(=O)c2cccc(C(F)(F)F)c2)CC1 (centres undefined) | – | 29.1 µM [rising, single point] | –
19 | c1cnn(-c2cc(N3CCOCC3)ncn2)c1 | -19% | 0.58 µM [falling, single point] | 3.26 µM [falling, full curve, poor fit]

Two of the compounds above, with tabs:
Row	Compound	cell number change	AC50 [1]	AC50 [2]
17	CSc1ccccc1NC(=O)Cn1c([N+](=O)[O-])cnc1C	31.2%	–	29.1 µM [rising, single point]
18	O=C(NCC(c1cccs1)N1CCOCC1)C1CCN(S(=O)(=O)c2cccc(C(F)(F)F)c2)CC1 (centres undefined)	–	29.1 µM [rising, single point]	–

Remaining list, next part:

Row | Compound | cell number change | AC50 [1] | AC50 [2]
20 | O=C(COC(=O)c1ccncc1)c1ccccc1 | -51.6% | – | 0.731 µM [falling, partial curve]
21 | O=C(Nc1c[nH]c(=O)[nH]c1=O)c1ccccc1Cl | 11.3% | – | –
22 | CC(=O)c1ccc(OCc2cc(C(=O)N(C)Cc3ccccn3)no2)cc1 | 16.2% | – | –
23 | COc1ccccc1NS(=O)(=O)c1ccc(C(=O)NCCCN2CCCC2=O)cc1 | 7.11% | 0.146 µM [rising, full curve, poor fit] | –
24 | CCC(=O)Nc1nc(C)nc(C)c1C(C)=O | -19.8% | – | 0.0731 µM [falling, full curve, poor fit]
25 | O=C(CC1S/C(=N\S(=O)(=O)c2ccccc2)N(c2ccccc2)C1=O)Nc1ccc(F)cc1 (centres undefined) | 36.2% | – | 29.1 µM [rising, single point]
26 | C=CCn1c(C(C)NC(=O)c2ccccc2C)n[nH]c1=S (centres undefined) | 22.4% | 1.3 µM [rising, single point] | –
27 | Cc1ccc(C)c(NC(=O)CN(C)C(=O)c2ccccc2OCc2ccccc2Cl)c1 | -0.556% | 1.84 µM [rising, partial curve, poor fit] | –
28 | O=C(NCc1ccccc1)C1=C[C@H](c2ccc3c(c2)OCO3)C[C@H](OCCCCO)O1 | 3.18% | 0.92 µM [rising, full curve, poor fit] | –
29 | CN(CCNC(=O)C1(O)c2ccccc2NC(=O)N1c1ccccc1)Cc1ccccc1 (centres undefined) | -22.7% | 3.66 µM [falling, full curve] | 0.651 µM [falling, full curve, poor fit]
30 | C/C(=N\NS(=O)(=O)c1ccc(Cl)c([N+](=O)[O-])c1)c1cc2ccccc2o1 | 16.6% | – | –
31 | O=C(C1=C[C@@H](c2ccc(C(F)(F)F)cc2)C[C@@H](OCCCCO)O1)N1CCN(Cc2ccc3c(c2)OCO3)CC1 | -12.7% | 14.6 µM [falling, partial curve] | –
32 | C=CCn1c(C)nnc1SCC(=O)Nc1cc(S(=O)(=O)N2CCCC2)ccc1Cl | -14.8% | 6.51 µM [falling, single point] | –
33 | N#Cc1c(/N=C/c2ccc(-c3ccc(C(=O)O)c(Cl)c3)o2)sc2c1CCCC2 | -50.1% | 0.731 µM [falling, single point] | 0.82 µM [falling, full curve]
34 | CC(C)C1Oc2ccccc2N(CC(=O)N2CCOCC2)C1=O (centres undefined) | -11.5% | – | –
35 | O=C1CCc2cc(S(=O)(=O)Nc3ccccc3)ccc2N1 | -13.1% | 0.00461 µM [rising, full curve, poor fit] | –
36 | CCOC(=O)c1ccc(N=c2sc(C(=O)OC)cc(=O)n2Cc2ccc3c(c2)OCO3)cc1 | 65.9% | 0.651 µM [rising, full curve, poor fit] | 1.03 µM [rising, full curve, poor fit]
37 | CC(C)C(=O)NC(=S)Nc1ccc(S(=O)(=O)NC2CCCCC2)cc1 | -23.4% | 1.64 µM [rising, partial curve, poor fit] | –
